Results are given in words; binding and its absence hold for the method and conditions named. Binding seen in cells or lysates may run through a third protein. Some binding calls cover weakened binding; strength is not graded here.
Assays:
[1] = target: full-length ARNT (pCMV-Tag1-ARNT), Flag-tagged (mouse) (UniProt P53762); test: co-IP; HEK293T cells co-transfected with pCMV-Tag4 (Myc) class I partner and pCMV-Tag1 (Flag) ARNT or ARNT2, WT or mutants; 10 nM 2,3,7,8-tetrachlorodibenzo-p-dioxin added in the case of AHR; immunoprecipitation as in Wu et al., 2015
[2] = target: mouse ARNT2 (pCMV-Tag1-ARNT2), C-terminal Flag-tagged (mouse) (UniProt Q61324); test: as above

Sequences of proteins named here, by UniProt entry; tags and fusion partners are left off. Residues count along the entry.
UniProt P53762: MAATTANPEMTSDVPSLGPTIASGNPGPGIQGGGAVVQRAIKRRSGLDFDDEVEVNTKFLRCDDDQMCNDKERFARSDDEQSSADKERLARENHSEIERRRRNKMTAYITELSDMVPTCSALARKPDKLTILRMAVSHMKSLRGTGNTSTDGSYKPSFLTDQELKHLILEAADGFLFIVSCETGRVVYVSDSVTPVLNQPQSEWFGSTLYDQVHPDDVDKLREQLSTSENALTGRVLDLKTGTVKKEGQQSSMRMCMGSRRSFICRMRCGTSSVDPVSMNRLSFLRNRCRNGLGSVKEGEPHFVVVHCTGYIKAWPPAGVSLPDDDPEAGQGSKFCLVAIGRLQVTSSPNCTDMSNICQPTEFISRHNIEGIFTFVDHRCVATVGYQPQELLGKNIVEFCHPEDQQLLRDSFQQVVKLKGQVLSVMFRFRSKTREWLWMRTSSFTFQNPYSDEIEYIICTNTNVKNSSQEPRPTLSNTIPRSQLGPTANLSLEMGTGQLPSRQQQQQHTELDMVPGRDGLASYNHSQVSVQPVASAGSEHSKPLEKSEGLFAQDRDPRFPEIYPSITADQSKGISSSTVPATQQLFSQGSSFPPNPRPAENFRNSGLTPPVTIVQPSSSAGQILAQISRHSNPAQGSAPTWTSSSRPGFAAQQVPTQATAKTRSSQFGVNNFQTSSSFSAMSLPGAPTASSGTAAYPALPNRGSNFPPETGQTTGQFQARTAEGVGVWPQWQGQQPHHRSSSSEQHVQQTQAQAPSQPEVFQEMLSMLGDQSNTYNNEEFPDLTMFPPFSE
UniProt Q61324: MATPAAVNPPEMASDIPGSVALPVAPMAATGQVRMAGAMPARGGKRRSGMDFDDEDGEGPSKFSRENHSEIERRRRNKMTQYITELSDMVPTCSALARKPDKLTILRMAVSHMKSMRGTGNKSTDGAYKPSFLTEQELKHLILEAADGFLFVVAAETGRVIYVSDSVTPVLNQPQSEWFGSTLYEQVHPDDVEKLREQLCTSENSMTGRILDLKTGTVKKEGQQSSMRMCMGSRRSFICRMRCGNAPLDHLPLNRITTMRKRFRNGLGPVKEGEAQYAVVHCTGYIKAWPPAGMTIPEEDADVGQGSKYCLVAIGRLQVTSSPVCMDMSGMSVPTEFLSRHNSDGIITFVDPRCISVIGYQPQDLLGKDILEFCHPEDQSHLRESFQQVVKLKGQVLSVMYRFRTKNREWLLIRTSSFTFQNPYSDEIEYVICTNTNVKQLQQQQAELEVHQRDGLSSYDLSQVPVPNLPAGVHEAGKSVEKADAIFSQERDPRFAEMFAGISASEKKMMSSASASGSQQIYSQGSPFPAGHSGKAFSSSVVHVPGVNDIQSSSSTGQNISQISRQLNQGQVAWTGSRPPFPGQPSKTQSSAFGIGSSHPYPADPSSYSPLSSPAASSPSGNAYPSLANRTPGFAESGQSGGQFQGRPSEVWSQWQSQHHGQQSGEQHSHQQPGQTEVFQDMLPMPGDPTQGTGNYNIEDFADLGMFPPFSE
UniProt P30561, residues 10-848: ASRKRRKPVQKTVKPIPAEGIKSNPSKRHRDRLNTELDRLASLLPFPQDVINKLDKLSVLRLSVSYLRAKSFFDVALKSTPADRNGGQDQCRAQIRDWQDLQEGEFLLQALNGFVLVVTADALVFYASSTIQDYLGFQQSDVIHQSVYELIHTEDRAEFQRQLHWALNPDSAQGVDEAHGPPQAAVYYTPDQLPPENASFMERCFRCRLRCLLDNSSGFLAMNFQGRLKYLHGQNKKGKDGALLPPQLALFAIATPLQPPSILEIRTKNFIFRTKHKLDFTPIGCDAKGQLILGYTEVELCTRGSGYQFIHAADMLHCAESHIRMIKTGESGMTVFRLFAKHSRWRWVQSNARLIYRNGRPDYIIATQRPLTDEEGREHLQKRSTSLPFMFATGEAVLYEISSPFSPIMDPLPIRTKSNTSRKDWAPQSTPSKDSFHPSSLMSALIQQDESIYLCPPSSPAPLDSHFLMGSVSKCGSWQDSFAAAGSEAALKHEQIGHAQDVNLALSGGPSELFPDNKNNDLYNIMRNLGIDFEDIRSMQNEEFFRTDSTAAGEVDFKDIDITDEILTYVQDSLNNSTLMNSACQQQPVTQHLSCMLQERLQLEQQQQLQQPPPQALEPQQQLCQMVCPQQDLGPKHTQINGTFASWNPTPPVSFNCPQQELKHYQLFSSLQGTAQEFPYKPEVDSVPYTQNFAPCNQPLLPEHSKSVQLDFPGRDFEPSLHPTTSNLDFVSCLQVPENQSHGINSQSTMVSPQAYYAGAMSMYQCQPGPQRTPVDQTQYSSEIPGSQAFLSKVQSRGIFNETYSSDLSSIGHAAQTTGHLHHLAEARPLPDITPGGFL
UniProt Q61045: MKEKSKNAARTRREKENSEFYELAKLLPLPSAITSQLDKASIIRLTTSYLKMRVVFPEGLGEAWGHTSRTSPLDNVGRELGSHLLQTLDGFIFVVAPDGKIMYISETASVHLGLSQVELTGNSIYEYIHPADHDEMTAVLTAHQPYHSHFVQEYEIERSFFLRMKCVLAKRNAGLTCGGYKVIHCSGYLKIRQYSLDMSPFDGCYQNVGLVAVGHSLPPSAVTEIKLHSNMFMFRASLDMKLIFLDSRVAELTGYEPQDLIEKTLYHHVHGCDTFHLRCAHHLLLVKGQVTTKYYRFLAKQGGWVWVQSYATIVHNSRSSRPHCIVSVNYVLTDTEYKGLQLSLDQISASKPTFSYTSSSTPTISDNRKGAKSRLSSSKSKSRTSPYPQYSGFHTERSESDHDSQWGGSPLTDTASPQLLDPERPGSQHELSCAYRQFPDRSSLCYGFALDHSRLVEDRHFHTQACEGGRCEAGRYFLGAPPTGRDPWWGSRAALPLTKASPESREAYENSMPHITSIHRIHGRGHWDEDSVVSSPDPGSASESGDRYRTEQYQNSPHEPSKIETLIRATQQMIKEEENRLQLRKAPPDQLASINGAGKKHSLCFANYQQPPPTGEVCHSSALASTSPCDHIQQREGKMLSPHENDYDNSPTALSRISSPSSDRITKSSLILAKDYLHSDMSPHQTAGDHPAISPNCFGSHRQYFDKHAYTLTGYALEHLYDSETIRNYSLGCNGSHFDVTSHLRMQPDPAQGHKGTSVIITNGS

binding [1] | binding [2] | Substance
binds |  | AHR (pCMV-Tag4-AHR) (from UniProt P30561 10-848)
binds | binds | full-length mouse SIM1, C-terminal Myc-tagged (from UniProt Q61045 1-765)

From paper PMC5111884
